Patent US20240217960A1, “TRIAZINE DERIVATIVE AS COVALENT INHIBITORS OF PI3K” (UNIVERSITÄT BASEL, priority 2021, published 2024)
The match of structure and compound is tentative.

The chains behind the UniProt entries cited, without tags or fusion partners.
UniProt P42336, whole entry: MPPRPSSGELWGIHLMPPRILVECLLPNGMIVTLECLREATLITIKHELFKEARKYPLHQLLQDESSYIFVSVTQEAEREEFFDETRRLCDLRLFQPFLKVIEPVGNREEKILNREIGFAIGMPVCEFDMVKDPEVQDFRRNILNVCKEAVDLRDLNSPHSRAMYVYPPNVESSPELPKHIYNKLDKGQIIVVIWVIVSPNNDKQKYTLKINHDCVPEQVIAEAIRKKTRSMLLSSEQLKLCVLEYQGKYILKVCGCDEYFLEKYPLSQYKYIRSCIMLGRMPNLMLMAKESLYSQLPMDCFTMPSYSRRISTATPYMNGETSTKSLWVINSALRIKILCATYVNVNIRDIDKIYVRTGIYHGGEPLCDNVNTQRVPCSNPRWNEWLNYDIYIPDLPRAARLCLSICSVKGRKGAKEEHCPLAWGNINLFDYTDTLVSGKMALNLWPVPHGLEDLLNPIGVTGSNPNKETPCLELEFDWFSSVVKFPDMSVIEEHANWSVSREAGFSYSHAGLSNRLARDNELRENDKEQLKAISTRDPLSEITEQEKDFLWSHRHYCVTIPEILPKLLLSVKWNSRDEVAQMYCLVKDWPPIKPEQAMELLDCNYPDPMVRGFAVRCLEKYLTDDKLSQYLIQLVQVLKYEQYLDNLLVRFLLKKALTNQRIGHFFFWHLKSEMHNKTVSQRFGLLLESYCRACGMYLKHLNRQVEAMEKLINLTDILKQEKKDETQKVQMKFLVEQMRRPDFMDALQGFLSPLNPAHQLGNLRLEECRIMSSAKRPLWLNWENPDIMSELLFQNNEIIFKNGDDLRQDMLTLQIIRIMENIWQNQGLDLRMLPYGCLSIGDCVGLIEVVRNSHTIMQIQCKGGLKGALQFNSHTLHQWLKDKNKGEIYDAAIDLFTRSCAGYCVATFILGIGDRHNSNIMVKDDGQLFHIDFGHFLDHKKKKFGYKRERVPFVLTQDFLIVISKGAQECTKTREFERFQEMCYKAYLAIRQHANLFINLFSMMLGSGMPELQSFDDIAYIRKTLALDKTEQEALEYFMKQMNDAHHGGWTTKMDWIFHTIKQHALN
UniProt P27986, whole entry partner: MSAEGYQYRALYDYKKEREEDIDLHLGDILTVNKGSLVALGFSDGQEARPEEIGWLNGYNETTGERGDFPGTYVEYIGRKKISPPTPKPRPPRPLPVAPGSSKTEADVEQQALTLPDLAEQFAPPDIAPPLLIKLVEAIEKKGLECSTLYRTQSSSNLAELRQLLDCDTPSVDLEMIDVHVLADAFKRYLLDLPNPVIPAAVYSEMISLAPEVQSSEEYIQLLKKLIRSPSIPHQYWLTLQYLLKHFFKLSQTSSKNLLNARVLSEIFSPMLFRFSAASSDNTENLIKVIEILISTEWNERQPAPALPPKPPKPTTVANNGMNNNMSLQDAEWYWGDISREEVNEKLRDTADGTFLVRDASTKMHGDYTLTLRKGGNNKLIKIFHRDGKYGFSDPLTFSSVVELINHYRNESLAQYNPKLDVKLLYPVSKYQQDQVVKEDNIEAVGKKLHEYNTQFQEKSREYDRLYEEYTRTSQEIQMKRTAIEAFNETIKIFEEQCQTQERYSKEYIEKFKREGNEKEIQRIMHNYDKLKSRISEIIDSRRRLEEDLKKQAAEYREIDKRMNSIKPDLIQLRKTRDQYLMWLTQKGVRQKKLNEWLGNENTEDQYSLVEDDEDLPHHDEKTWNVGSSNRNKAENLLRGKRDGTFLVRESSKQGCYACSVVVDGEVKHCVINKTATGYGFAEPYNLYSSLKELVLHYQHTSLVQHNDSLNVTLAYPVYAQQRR

Tests used:
[1] = Intrinsic reactivity of the inhibitors (kchem) with βME measured with HPLC; assay type: physicochemical; settings: 1 mM inhibitor + 600 mM βME, n = 3
[2] = target: p110α (PI3Kα) (Homo sapiens, UniProt P42336); assay: Determination of kinetic constants (kinact, Ki) for p110α by LanthaScreen Technology; assay type: binding
[3] = tested on: pSer473 of PKB/Akt in SKOV3 cells; assay: In Cell Western cellular PI3K signaling and IC50 determination; assay type: cell-based; settings: read-out: IC50 pPKB (S473) SKOV3, 2 or 3 independent measurements
Experimental: Protein phosphorylation was detected as follows: pSer473 of PKB/Akt with rabbit polyclonal antibody from Cell Signaling Technology (CST) (#4058) by In-Cell Western assays, where 1.2×10^4 SKOV3 cells/well in 96-well plates were plated (Cell Carrier, PerkinElmer) for 24 hours (37° C., 5% CO2), as described in Ref. ^25.

[4] = Experimental LogD; assay type: physicochemical; settings: 3 independent measurements

Q: Which “kchem (intrinsic reactivity of the inhibitors)” value [1] does the source give for C=CC(=O)N1CCC(CN(C)CC(=O)N2CCN(c3nc(-c4cnc(N)nc4C(F)F)nc(N4CCOCC4)n3)CC2)CC1 here?
A: The value was 0.000267 M⁻¹ s⁻¹.

Q: And the “kinact/Ki PI3Kα” value [2]?
A: Its value is 6350 M⁻¹ s⁻¹.

Q: And the “kinact PI3Kα” value ([2]; maximum potential rate of covalent bond formation, global fitting with KinTek)?
A: The value was 0.000214 s⁻¹.

Q: What about the Ki ([2]; read-out: Ki PI3Kα, dissociation constant of the first reversible binding, global fitting with KinTek) of the same molecule?
A: The Ki was 0.0336 µM.

Q: What about the IC50 [3] of the same molecule?
A: The IC50 was 0.041 µM.

Q: What about the Experimental LogD, pH 7.4 [4] of the same molecule?
A: The Experimental LogD, pH 7.4 was 1.79.
